# According to PMC7862700:
# Chains of the proteins cited; added tags and fusions are not shown. Lines headed by an entry give the natural chain unless they say otherwise; changes in a name come on top.
# UniProt Q01892: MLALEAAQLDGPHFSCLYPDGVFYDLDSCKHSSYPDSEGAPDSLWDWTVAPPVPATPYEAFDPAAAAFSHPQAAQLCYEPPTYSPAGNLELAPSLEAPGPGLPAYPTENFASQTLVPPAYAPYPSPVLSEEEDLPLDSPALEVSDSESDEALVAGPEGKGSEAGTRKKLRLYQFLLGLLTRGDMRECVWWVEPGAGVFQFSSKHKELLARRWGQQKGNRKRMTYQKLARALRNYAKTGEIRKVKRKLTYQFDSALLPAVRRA
# UniProt P41161: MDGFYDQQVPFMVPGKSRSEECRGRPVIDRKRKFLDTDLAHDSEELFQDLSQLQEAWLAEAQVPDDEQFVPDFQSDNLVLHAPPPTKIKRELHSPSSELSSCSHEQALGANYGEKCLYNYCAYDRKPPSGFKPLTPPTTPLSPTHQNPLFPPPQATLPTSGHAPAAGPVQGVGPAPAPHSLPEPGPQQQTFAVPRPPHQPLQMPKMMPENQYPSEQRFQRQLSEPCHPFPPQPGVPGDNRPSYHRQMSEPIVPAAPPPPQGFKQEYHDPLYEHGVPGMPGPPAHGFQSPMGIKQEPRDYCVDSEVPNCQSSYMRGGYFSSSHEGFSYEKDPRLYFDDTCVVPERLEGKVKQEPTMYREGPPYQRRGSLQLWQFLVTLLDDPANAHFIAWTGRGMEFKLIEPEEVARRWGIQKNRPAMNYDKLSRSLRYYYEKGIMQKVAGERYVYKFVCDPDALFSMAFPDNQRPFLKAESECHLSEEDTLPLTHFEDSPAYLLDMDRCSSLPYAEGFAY
# UniProt Q99607: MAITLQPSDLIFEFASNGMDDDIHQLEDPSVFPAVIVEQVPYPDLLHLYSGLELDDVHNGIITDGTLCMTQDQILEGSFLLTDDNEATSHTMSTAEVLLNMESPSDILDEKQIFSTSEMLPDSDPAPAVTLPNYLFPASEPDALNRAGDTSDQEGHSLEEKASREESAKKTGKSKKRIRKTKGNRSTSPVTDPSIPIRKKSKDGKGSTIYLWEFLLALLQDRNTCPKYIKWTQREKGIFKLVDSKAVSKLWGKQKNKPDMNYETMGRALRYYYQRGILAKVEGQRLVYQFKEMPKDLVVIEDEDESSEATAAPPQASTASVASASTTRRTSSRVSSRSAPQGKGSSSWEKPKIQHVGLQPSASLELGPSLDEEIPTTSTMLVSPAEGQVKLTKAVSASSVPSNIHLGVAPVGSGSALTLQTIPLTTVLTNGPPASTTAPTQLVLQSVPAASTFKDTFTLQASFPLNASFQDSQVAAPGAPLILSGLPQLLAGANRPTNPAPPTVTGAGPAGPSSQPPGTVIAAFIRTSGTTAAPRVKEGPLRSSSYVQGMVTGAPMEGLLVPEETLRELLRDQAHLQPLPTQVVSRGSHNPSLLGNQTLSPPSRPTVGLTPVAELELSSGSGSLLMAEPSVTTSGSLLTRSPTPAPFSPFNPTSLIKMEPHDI
# The list shows a part of the results, in another mix than the full data. At the low end of the ranking the order means little.
# What was measured:
# Experiment in all cases: DAPPL (digital affinity profiling via proximity ligation, sequencing)
# Conditions in all cases: 10 mM Tris-HCl pH 7.5, 50 mM NaCl, 1 mM DTT, 4% glycerol, room temperature, 30 min; GST-TFs on glutathione beads, 16-mer random dsDNA library, 0.1% …; high values mean tight binding; double strand, one strand shown; scale: fold enrichment (6-mer frequency, TF over GST control)
# FLI1 = biological target: T1, FLI1 (UniProt Q01543)
# T1 sequence: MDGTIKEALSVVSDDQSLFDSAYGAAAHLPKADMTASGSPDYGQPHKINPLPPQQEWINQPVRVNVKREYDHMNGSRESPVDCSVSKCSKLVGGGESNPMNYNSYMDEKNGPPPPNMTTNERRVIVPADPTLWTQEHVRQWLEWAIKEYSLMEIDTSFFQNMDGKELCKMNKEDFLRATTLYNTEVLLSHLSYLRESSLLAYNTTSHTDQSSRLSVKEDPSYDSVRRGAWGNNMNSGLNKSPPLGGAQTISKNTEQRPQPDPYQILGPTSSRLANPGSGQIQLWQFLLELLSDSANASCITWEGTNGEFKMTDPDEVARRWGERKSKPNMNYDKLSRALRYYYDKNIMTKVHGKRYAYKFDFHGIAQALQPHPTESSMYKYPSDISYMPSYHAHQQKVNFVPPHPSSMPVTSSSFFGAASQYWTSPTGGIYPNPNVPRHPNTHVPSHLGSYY
# EHF = biological target: T2, EHF (UniProt Q9NZC4)
# T2 sequence: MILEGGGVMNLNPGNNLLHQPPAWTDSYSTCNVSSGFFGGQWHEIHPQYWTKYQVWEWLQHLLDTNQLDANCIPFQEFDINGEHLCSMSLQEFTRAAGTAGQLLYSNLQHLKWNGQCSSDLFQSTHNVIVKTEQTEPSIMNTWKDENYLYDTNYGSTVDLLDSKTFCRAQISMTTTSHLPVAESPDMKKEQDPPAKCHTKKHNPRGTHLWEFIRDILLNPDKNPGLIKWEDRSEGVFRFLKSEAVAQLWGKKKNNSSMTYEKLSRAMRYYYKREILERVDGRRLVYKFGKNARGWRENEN
# SPIB = SPIB (UniProt Q01892)
# ETV5 = ETV5 (UniProt P41161)
# ELF4 = ELF4 (UniProt Q99607)
# ETV2 = biological target: T3, ETV2 (UniProt O00321)
# T3 sequence: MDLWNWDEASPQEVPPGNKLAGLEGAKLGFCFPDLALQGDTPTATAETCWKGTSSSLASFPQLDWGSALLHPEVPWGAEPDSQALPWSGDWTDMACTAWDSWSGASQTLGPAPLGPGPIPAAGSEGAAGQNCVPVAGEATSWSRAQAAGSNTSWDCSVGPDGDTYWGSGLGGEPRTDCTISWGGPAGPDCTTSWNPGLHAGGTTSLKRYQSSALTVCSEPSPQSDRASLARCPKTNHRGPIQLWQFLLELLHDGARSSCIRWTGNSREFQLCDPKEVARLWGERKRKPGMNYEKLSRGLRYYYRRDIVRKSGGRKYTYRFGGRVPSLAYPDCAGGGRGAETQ
# ETV3L = biological target: T4, ETV3L (UniProt Q6ZN32)
# T4 sequence: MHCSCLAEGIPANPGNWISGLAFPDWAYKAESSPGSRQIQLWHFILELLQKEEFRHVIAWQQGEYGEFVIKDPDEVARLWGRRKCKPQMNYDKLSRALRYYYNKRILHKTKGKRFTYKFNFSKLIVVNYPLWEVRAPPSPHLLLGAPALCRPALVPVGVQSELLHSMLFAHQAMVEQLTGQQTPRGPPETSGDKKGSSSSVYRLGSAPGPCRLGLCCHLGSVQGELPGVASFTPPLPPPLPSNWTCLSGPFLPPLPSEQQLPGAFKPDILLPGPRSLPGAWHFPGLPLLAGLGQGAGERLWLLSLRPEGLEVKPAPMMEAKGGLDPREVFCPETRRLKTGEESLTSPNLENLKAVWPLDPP
Sequence,binding signal (FLI1),binding signal (EHF),binding signal (SPIB),binding signal (ETV5),binding signal (ELF4),binding signal (ETV2),binding signal (ETV3L)
CGTGTA,0.722,0.659,0.661,0.645,0.662,0.612,0.626
GTCAGT,0.638,0.582,0.582,0.598,0.612,0.584,0.595
CCAGTC,0.261,0.263,0.277,0.266,0.282,0.281,0.27
TAGGGA,0.719,0.819,0.795,0.829,0.827,0.723,0.853
TGCAGT,0.819,0.786,0.778,0.804,0.847,0.913,0.88
GCCCAG,0.697,0.655,0.678,0.718,0.733,0.824,0.708
AGAGTA,0.76,0.833,0.772,0.805,0.801,0.765,0.763
AGGTTA,0.789,0.804,0.759,0.775,0.811,0.837,0.809
GGACGC,0.398,0.406,0.4,0.401,0.389,0.339,0.398
GTAGCC,0.937,0.873,0.885,0.884,0.956,0.972,0.935
CAGGTG,0.533,0.586,0.573,0.587,0.628,0.58,0.593
GGAACG,0.61,0.616,0.659,0.657,0.593,0.552,0.637
GTCTGA,0.78,0.754,0.784,0.729,0.79,0.878,0.72
GCGGTA,0.809,0.768,0.757,0.745,0.765,0.758,0.822
ATGTCG,0.587,0.634,0.651,0.61,0.648,0.572,0.579
GCGGCC,0.865,0.723,0.726,0.875,0.909,0.875,0.78
ACGGAC,0.867,0.859,0.877,0.823,0.861,0.882,0.852
GAGAAC,0.394,0.429,0.426,0.391,0.42,0.431,0.43
GCAGCG,0.798,0.777,0.883,0.851,0.796,0.827,0.864
CAATCG,0.888,0.858,0.819,0.862,0.857,0.882,0.917
GACCAT,0.847,0.823,0.838,0.791,0.889,0.896,0.867
AGGAGT,0.349,0.407,0.418,0.391,0.351,0.358,0.363
TCGGGA,0.373,0.356,0.444,0.4,0.367,0.346,0.398
CGCAGA,0.827,0.772,0.844,0.768,0.747,0.895,0.688
TCGGTG,0.514,0.535,0.529,0.6,0.521,0.625,0.568
AGGCGC,0.534,0.52,0.521,0.577,0.577,0.648,0.631
GCAGTT,0.873,0.88,0.895,0.832,0.835,0.945,0.821
AGAGGG,0.689,0.726,0.739,0.726,0.736,0.807,0.669
GAGCCA,0.599,0.66,0.554,0.573,0.645,0.658,0.584
AGAAAG,0.872,0.849,0.846,0.853,0.849,0.862,0.832

# Reprinted at random: 2 records from the list
Sequence,binding signal (FLI1),binding signal (EHF),binding signal (SPIB),binding signal (ETV5),binding signal (ELF4),binding signal (ETV2),binding signal (ETV3L)
ACGGAC,0.867,0.859,0.877,0.823,0.861,0.882,0.852
GGACGC,0.398,0.406,0.4,0.401,0.389,0.339,0.398
